# Primary screen of a compound library

Protein sequences, listed by entry. Tags and fused reporters are not part of them.
UniProt E9BF75, entry or part of it: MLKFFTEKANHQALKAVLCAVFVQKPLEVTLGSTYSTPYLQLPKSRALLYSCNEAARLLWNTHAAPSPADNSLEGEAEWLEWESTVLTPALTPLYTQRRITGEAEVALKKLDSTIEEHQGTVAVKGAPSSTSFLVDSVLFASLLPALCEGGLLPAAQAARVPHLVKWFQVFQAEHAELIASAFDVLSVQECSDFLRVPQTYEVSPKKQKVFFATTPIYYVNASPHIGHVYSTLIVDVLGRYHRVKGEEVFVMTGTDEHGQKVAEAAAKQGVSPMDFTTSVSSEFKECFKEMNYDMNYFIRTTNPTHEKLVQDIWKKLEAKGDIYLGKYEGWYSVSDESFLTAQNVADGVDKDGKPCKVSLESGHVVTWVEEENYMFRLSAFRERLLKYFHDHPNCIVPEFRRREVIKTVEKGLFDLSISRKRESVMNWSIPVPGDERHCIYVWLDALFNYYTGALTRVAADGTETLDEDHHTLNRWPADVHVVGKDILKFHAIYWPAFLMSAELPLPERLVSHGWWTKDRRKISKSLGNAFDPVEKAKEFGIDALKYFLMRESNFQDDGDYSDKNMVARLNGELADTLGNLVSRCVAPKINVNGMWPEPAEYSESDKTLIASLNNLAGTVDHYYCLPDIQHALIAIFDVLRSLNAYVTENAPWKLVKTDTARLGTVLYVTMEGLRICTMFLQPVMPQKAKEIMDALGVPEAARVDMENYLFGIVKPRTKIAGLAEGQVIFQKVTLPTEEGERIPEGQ

From ChEMBL document CHEMBL3988442, “University of Dundee, Small-Polar-MMV Screening Library” (2021).

Results are percentages, as filed.
The controls that fix the scale are not given in the record; negative values are as filed.
The compounds are a random part of those screened.
A dash means the value is not listed here; it may have been measured.

Mtb heat-shock: 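Assay on Mycobacterium tuberculosis, filed only as a heat shock assay from Cornell; the read-out is not stated. The concentration is filed as 10 mM, unlikely as a test dose, so the dose is not known. Higher reads as stronger inhibition (inferred: compounds with an IC50 in retests scored well above the rest). About 69,000 compounds were tested under these conditions; 1.4% (about 930) showed 50% or more at least once.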
LdMetRS: 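Methionyl-tRNA synthetase (putative), Leishmania donovani (UniProt E9BF75). Primary screen of methionyl-tRNA synthetase; the read-out is not stated. The test concentration is not given. Values are per cent inhibition. Size under these conditions: about 68,000 compounds, about 24 of them at 50% or above in at least one test.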
Mtb growth Cornell: 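Whole-cell assay for inhibitors of Mycobacterium tuberculosis growth, labelled Cornell in the record; the read-out is not stated. The concentration is filed as 10 mM, unlikely as a test dose, so the dose is not known. Higher means stronger inhibition (inferred from two other growth screens of the library). About 53,000 compounds were tested under these conditions; 1.7% (about 900) showed 50% or more at least once.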

structure	Mtb heat-shock	LdMetRS	Mtb growth Cornell
COc1ccc(C2CCCN2S(=O)(=O)N(C)CC(C)C)cc1 (centres undefined)	18.23	2.655	16.97
NCC(CO)Cc1ccc(C(F)(F)F)cc1 (centres undefined)	-20.17	5.307	-23.3
Cc1ccnc(CC(C)N(C)c2cc(C3CCNCC3)nc(C)n2)c1 (centres undefined)	-17.96	6.634	18.07
CCOc1ccc(CN(C)C(=O)COc2ccc(C)nc2)cc1	5.033	23.18	2.588
CN1C[C@H](O)[C@]2(CCN(Cc3ccc(OC(F)(F)F)cc3)C2)S1(=O)=O	-6.196	10.54	30.47
CCN(Cc1ccoc1)C(=O)c1cc2c(c(S(N)(=O)=O)c1)CCC2	-3.553	4.511	-
Cc1ccc(NC(=O)c2nc3c(s2)CCCN3C(C)C)cn1	-2.121	-9.774	-8.869
O=C(Nc1ncn(Cc2cccc(Br)c2)n1)C1CCC1	8.355	3.846	4.09
Cc1nc2cc(=O)[nH]n2c(C)c1CNC(=O)C(C)Cc1ccccc1 (centres undefined)	0.1843	10.53	39.34
O=C(NCc1ccccn1)[C@]12COC[C@H]1CN(Cc1cccnc1)C2	-	9.645	-
O=C(CCN1CCCC1)N1CC[C@@H](c2ccc3ccccc3c2)[C@H](O)C1	42.58	32.19	59.79
Cc1cc(N2CCN(C(=O)c3cnn(C(C)C)c3)CC2)cc(C)n1	2.788	8.696	-53.27
Cc1cccn2cc(C[S+]([O-])Cc3noc(C(C)C)n3)nc12 (centres undefined)	-17.99	8.871	-
CN(Cc1n[nH]c2c1CCCC2)c1nc2c(c(=O)[nH]1)CCNCC2	35.26	11.25	-44.17
COc1cc(Cc2nc3c([nH]2)CC(C)(C)CNC3=O)cc(OC)c1	-4.831	1.681	-16.49
COCCC1(C(=O)NCCc2nncn2C2CC2)CCC1	3.109	8.377	-9.576
Cc1cnc(CN(C)C2CCN(CCn3cc(C#N)cn3)C2)o1 (centres undefined)	14.28	6.536	1.728
Cc1ccc(N2N=C(C(=O)O)S(=O)(=O)c3cccnc32)cc1	-6.267	14.4	51.3
CCc1nc(CN(C(C)=O)C2CCN(CCc3cccs3)C2)no1 (centres undefined)	-5.981	9.777	6.909
CCn1cc(CNC(=O)c2nn(CC)cc2Br)cn1	5.482	10.17	0.2214
CCCSCC(=O)NS(=O)(=O)c1ccc2c(c1)OCCO2	-5.364	13.27	-
O=C(O)C(F)(F)F.[H][C@@]12CCN(c3ncccn3)[C@@]1([H])CCN2S(=O)(=O)c1ccc(F)cc1	2.333	-	21.77
Cc1nc(CN2CCCN(c3nccs3)CC2)no1	-1.642	6.25	-
COc1ccc(S(=O)(=O)NCCC(=O)NCc2ccoc2)cc1OC	-33.79	7.427	-16.87
O=C(Cc1ccco1)N1CCC2(CCOCC2COCC2CC2)CC1 (centres undefined)	11.21	8.889	-
[H][C@]12CCN(C(=O)C3CC3)[C@@]1([H])CC[C@@H](COCc1csc(C)n1)O2	-1.564	-	-6.149
Cc1ccc(C(=O)N2CCOC(c3nc(-c4ncccn4)no3)C2)cc1 (centres undefined)	-7.325	15.62	1.679
c1cc(CO[C@H]2CC[C@H]3[C@H]2OCCN3Cc2nccs2)ccn1	-	14.99	-
O=C(c1cnccn1)N1CCCC(Cc2cncc3ccccc23)C1 (centres undefined)	-4.71	16.77	-2.153
[H][C@@]12CCN(Cc3ccoc3)C[C@]1([H])O[C@H](C(=O)NCC1CC1)C2	-11.78	-	22.52
COc1ccccc1CN1CC[C@H]2[C@@H](C1)[C@H](c1ccsc1)CN2C(C)=O	-	3.641	-
O=C(Cc1ccccn1)N1CCN2C[C@H](Oc3cncnc3)C[C@H]2C1	-	15.42	-
CC(C)COC(C)C(=O)N1CCCCC1 (centres undefined)	14.41	7.888	0.4249
Cc1cc(C(=O)N2CC[C@](C)(O)[C@H](C)C2)c(C)n1C	-3.905	8.672	-15.24
Cc1ccnc(NCc2cn3nc(C)sc3n2)n1	-3.383	0.5602	-11.23
Cc1c[nH]c(CN(C)C(=O)c2cccc(CCC(C)(C)O)c2)n1	-16.55	17.56	12.63
N[C@H]1CN(C(=O)CCCc2ccc(F)cc2)C[C@@H]1C1CC1	10.34	7.161	-16.75
Cc1noc(C)c1S(=O)(=O)N1C[C@@H](C(=O)O)[C@H](c2ccccn2)C1	-5.316	8.065	-2.051
CN(C)c1cc(CNC(=O)c2cn(-c3ccc(F)cc3)nn2)ccn1	-7.476	14.58	-
Cc1nc(CN2CCCC2c2noc(C3CC3)n2)nc2ccccc12 (centres undefined)	27.9	28.25	-
COc1ccc(C(CNC(=O)c2cnc(C)cn2)N2CCOCC2)cc1 (centres undefined)	-18.08	4.891	-27.01
CC(C)CN1CCC2(CCN(Cc3ccoc3)CC2)C1=O	-26.62	8.418	9.213
Cc1nnc(C(C)NCC2(c3ccc(Cl)cc3)CCCC2)o1 (centres undefined)	-4.075	5.435	-
O=C(NCC1CCOC1)c1csc(-c2ccco2)n1 (centres undefined)	11.91	4.453	-5.815
CCC(NC(=O)CC1CCN(CC)CC1)c1cn2cccnc2n1 (centres undefined)	-1.225	7.581	8.634
Cc1ccc(CC(=O)N2CCCC(n3nc(C)cc3C)C2)cn1 (centres undefined)	-11.59	1.408	-
O=C(c1ccccc1F)N1CC(c2nc(C3CC3)no2)C1	11.66	7.194	8.321
O=C(NCC1(Sc2ccccc2)CC1)c1ccc(=O)[nH]n1	16.45	20.12	-38.77
OCC(O)CSCc1cc(Cl)ccc1Cl (centres undefined)	-33.26	17.83	14.23
CC1c2ncc(CN3CCN(C)CC3)n2CCN1Cc1ccsc1.O=C(O)C(F)(F)F.O=C(O)C(F)(F)F.O=C(O)C(F)(F)F (centres undefined)	-30.83	-	-
Cc1nc2c(c(C)c1CC(=O)Nc1cccc(C#N)c1)c(=O)[nH]n2C	-0.9435	0	-
CCn1nnc2c1C(COC)CN(C(=O)Cc1ccccn1)C2 (centres undefined)	2.015	27.38	23.96
CN(C)C(=O)C1OC2(CCN(C(=O)N(C)C)CC2)c2ccccc21 (centres undefined)	3.698	21.04	12.32
COCc1nc(CNC2CCCc3c2cnn3C(C)(C)C)cs1 (centres undefined)	20.44	17.96	15.33
COc1ccc(Cn2c(C3CCNCC3)cc3cccnc32)cc1	-	9.688	-

The last 4 entries again:

For CCn1nnc2c1C(COC)CN(C(=O)Cc1ccccn1)C2 (centres undefined) the result was Mtb heat-shock: 2.015%; LdMetRS: 27.38%; Mtb growth Cornell: 23.96%.
For CN(C)C(=O)C1OC2(CCN(C(=O)N(C)C)CC2)c2ccccc21 (centres undefined) the result was Mtb heat-shock: 3.698%; LdMetRS: 21.04%; Mtb growth Cornell: 12.32%.
For COCc1nc(CNC2CCCc3c2cnn3C(C)(C)C)cs1 (centres undefined) the result was Mtb heat-shock: 20.44%; LdMetRS: 17.96%; Mtb growth Cornell: 15.33%.
For COc1ccc(Cn2c(C3CCNCC3)cc3cccnc32)cc1 the result was LdMetRS: 9.688%.